# Laboratory results: PubChem BioAssay AID493246 (Drosophila RNAi Screening Center, 2011)
# Screen: 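Identify essential fly genes by loss of cell viability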 (primary screen)
# Cells: Drosophila Kc and S2R+ cells
# Reagents: long dsRNA against Drosophila genes
# Measurement: 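Cell number per well after knock-down, printed as raw plate values; calls were based on per-plate z-scores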
# Reading the numbers: Kc cell number and S2R+ cell number: higher = more cells remaining
# Active means: 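Counted as a hit if cell number falls by a z-score of at least 3 within its plate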
# The screen tested about 21,000 reagents; shown is an unselected part of those with a known target gene and a result. Over the whole deposit, 429 (2%) are marked active. 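Values are raw and not normalised between plates; calls rest on per-plate z-scores that were not deposited.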 Unmarked entries are inactive. A plus sign joins genes that one reagent is predicted to hit. Not given: the amount of reagent, the time to read-out.
gene knocked down,amplicon,"Kc cell number, rep 1","Kc cell number, rep 2","S2R+ cell number, rep 1","S2R+ cell number, rep 2"
Fer1HCH,DRSC16671,4.93e5,,6.55e5,
Cpr78Ca,DRSC11651,1.56e6,1.64e6,1.27e6,1.37e6
RAF2,DRSC10443,1.61e6,1.64e6,1.39e6,1.47e6
RAF2,DRSC10454,1.44e6,1.49e6,1.16e6,1.26e6
Pect,DRSC02867,1.59e6,1.61e6,9.80e5,1.02e6
Pect,DRSC02868,1.78e6,1.82e6,1.03e6,1.14e6
CG10214,DRSC14213,1.54e6,1.56e6,1.23e6,1.34e6
CG13455,DRSC10002,1.44e6,1.53e6,1.30e6,1.37e6
CG9231,DRSC11054,1.52e6,1.53e6,1.23e6,1.24e6
CR42532,DRSC06713,1.86e6,1.91e6,1.45e6,1.64e6
CG11584,DRSC19408,1.59e6,1.63e6,1.13e6,1.17e6
eIF3h,DRSC01995,1.18e6,1.40e6,3.41e5,3.11e5
fd3F (retired record) + Crg-1,DRSC17283,1.42e6,1.53e6,1.09e6,1.17e6
bw,DRSC04005,1.44e6,1.52e6,9.55e5,1.07e6
bw,DRSC04677,1.36e6,1.43e6,1.17e6,1.28e6
run,DRSC20584,1.70e6,1.72e6,1.08e6,1.16e6
CG15219,DRSC03715,1.82e6,1.84e6,1.28e6,2.04e5
Pat1,DRSC17750,5.72e5,,9.56e5,
fs(1)K10,DRSC18775,4.76e5,,7.49e5,
CG6013,DRSC15947,1.52e6,1.60e6,1.14e6,1.17e6
lncRNA:sphinx + ATPsynF,DRSC17191,1.60e6,1.55e6,9.08e5,1.03e6
CG3701 (retired record),DRSC04408,1.63e6,1.67e6,1.34e6,1.35e6
CG3701 (retired record),DRSC04409,1.67e6,1.63e6,1.29e6,1.33e6
Nuf2,DRSC03123,1.24e6,1.29e6,5.51e5,5.79e5
CG14459,DRSC11719,8.47e5 (active),5.90e5,4.81e5,5.53e5
CG15107,DRSC06534,1.67e6,1.75e6,1.25e6,1.49e6
CG14151,DRSC10153,1.73e6,1.66e6,1.30e6,1.63e6
CG1172,DRSC12182,1.59e6,1.73e6,1.32e6,1.52e6
CG1671,DRSC06617,1.28e6,1.34e6,1.05e6,1.15e6
CG15743,DRSC19709,1.74e6,1.60e6,1.09e6,1.24e6
CG14650,DRSC12236,1.85e6,1.88e6,1.61e6,1.72e6
CG43339 + CG43338,DRSC02466,1.32e6,1.38e6,1.22e6,1.22e6
Ccdc58 + CG34116,DRSC10105,1.43e6,1.44e6,1.32e6,1.36e6
CG10555,DRSC17748,1.49e6,1.42e6,9.50e5,1.02e6
CG10177,DRSC14201,1.45e6,1.59e6,1.06e6,1.04e6
CG34268,DRSC07874,1.44e6,1.40e6,1.00e6,1.14e6
PH4alphaSG1,DRSC15080,1.42e6,1.44e6,9.70e5,1.09e6
Phyhd1,DRSC14911,1.59e6,1.75e6,1.42e6,1.56e6
Atg10,DRSC06172,1.80e6,1.76e6,1.39e6,1.57e6
Gr22b,DRSC20911,1.55e6,1.87e6,1.18e6,1.19e6
CG3568,DRSC18312,1.54e6,1.63e6,1.09e6,1.22e6
CG5913,DRSC15916,1.48e6,1.48e6,9.73e5,1.04e6
CG14507,DRSC14859,1.52e6,1.48e6,1.01e6,1.12e6
Rab4 + CG42239,DRSC05667,5.49e5,,8.85e5,
CG15605,DRSC06558,1.48e6,1.59e6,1.18e6,1.23e6
Atg10 + CG18853 + CG12822,DRSC20757,1.35e6,1.48e6,1.05e6,1.10e6
knon,DRSC07049,1.53e6,1.56e6,1.16e6,1.28e6
CG8170,DRSC07087,1.51e6,1.58e6,1.13e6,1.27e6
CG4945,DRSC06904,1.33e6,1.38e6,1.20e6,1.26e6
RpL23,DRSC04648,1.10e6 (active),1.17e6,7.25e5,9.05e5
CG11596,DRSC18540,4.96e5,,7.99e5,
csul,DRSC07599,1.48e6,1.59e6,1.16e6,1.27e6
CG13898,DRSC08368,1.17e6,1.40e6,1.16e6,1.35e6
IntS8,DRSC07417,1.15e6,1.20e6,1.03e6,1.13e6
aru,DRSC00802,1.49e6,1.54e6,1.00e6,1.23e6
Ance-2,DRSC02539,1.48e6,1.55e6,1.28e6,1.42e6
Acox57D-d,DRSC04561,1.38e6,1.46e6,1.16e6,1.23e6
CG10916,DRSC06012,1.42e6,1.40e6,1.18e6,1.24e6
CG42445,DRSC10858,1.53e6,1.42e6,1.42e6,1.32e6

Called active, among the entries above:
gene knocked down,amplicon,"Kc cell number, rep 1","Kc cell number, rep 2","S2R+ cell number, rep 1","S2R+ cell number, rep 2"
CG14459,DRSC11719,8.47e5 (active),5.90e5,4.81e5,5.53e5
RpL23,DRSC04648,1.10e6 (active),1.17e6,7.25e5,9.05e5
